We go through 7 substances from patent US20040235717A1, “Suppression of androgen receptor transactivation through new pathways to ar and ar coactivators and repressors” (priority 2001, published 2004).

Protein sequences, listed by entry. Tags and fused reporters are not part of them. Lines headed by an entry give the natural chain unless they say otherwise; changes in a name come on top.
UniProt Q13485: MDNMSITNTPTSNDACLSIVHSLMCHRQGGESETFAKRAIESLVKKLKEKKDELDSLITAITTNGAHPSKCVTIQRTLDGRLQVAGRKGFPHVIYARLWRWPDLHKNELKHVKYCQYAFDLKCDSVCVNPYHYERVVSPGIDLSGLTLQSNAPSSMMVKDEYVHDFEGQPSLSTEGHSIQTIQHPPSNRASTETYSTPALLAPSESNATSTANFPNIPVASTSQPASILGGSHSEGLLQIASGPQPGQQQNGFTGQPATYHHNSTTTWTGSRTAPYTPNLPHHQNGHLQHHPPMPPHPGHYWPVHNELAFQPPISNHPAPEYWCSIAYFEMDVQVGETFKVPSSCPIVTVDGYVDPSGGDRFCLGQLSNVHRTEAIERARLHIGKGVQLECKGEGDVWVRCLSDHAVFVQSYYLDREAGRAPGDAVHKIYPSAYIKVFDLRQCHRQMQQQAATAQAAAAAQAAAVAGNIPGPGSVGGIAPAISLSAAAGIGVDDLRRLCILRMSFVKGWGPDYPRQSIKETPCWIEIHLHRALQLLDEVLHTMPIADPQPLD
UniProt P84022: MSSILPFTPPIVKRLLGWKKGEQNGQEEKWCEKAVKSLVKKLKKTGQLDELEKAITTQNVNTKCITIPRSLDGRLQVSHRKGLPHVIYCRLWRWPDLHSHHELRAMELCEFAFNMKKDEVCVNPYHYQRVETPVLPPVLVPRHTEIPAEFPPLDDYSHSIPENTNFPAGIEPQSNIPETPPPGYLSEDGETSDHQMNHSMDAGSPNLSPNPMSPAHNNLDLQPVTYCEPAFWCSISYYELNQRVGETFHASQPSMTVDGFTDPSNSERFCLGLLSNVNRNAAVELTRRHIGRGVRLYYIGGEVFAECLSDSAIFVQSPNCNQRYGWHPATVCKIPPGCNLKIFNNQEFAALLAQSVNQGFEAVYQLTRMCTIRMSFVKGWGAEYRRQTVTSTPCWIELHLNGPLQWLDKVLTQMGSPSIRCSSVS
UniProt P10275: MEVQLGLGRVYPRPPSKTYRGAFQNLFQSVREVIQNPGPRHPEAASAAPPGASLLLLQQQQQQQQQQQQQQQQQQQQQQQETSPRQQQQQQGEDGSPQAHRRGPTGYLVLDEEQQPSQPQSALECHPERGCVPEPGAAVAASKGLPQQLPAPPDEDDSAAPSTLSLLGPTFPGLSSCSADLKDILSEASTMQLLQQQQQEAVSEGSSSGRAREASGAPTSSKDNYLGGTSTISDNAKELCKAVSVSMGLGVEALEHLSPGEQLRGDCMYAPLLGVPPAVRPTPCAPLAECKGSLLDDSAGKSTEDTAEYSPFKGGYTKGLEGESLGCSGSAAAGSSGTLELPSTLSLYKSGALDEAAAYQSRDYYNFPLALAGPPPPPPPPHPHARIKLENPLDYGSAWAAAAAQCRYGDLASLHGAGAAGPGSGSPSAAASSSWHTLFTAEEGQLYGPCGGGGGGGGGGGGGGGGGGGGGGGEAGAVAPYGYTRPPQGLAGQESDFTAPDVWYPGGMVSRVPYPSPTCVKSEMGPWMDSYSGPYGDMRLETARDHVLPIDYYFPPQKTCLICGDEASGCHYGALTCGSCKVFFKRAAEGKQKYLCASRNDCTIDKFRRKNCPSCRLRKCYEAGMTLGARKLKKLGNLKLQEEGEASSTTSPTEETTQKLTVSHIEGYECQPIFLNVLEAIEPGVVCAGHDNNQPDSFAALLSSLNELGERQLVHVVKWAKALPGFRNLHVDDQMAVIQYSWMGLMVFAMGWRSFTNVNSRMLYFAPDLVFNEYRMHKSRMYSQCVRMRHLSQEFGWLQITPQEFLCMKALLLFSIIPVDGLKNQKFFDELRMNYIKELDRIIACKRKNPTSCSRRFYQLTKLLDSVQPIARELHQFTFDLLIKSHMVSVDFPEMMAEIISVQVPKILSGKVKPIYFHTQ

Test [1] has as its target PTEN (phosphatase and tensin homolog deleted on chromosome ten), wild type, full length (Homo sapiens (Human)) (UniProt P60484). Description: co-immunoprecipitation in CWR22 cells transfected with ARf.
The target in test [2] is Smad4 (full length, untagged) (human) (UniProt Q13485). Description: GST pull-down of in vitro translated 35S-labelled Smad4.
Test [3] deals with Smad3 (full length, untagged) (human) (UniProt P84022). The test is described as follows: GST pull-down of in vitro translated 35S-labelled Smad3.
Test [4] has as its target androgen receptor, wild type, full length (UniProt P10275). Description: GST pull-down of 35S-labelled AR.
Test [5] shares this target. The test is described as follows: restates the GST pull-down of FIG. 21C.
For test [6] the target is unchanged. Description: GST pull-down of 35S-labelled full-length AR.
The target is the same in test [7]. The test is described as follows: co-immunoprecipitation of endogenous Smad4 in PC3-AR2 cells.

No constants are given. Whether binding was seen depends on the method and setting. Binding seen in cells or lysates may run through a third protein. Some binding calls cover weakened binding; strength is not graded here.

Consider “ARf (interaction domain within AR, aa 483-651) (from UniProt P10275 483-651) (peptide)”, for which, in test [1], the binding result is given as “binds”.

In the case of “GST-AR-LBD fusion protein (from UniProt P10275 655-920)”, the binding result in test [2] and in test [3] was “binds” each time.

In the case of “GST-PTEN-#2 (aa 107-252) (from UniProt P60484 107-252)”, the binding result in test [4] is on record as “binds”.

“GST-PTEN-PTP (PTEN aa 110-163) (from UniProt P60484 110-163)”: the binding result in test [4] and in test [5] was “binds” each time.

Regarding “GST-Smad3 fusion protein (from UniProt P08515 1-218; P84022 1-425)”, the binding entry in test [4] and in test [6] was “binds” each time.

As for “GST-Smad4 fusion protein (from UniProt P08515 1-218; Q13485 1-552)”, the binding result in test [4] and in test [6] was “binds” in each case.

Consider “Smad4 (full length, untagged) (from UniProt Q13485 1-552)”, for which the binding entry in test [7] is recorded as “binds”.
